Reference: PubChem BioAssay AID1347076 (National Center for Advancing Translational Sciences (NCATS), 2019)
About 13,000 (3.2%) of roughly 400,000 compounds were called active. The inconclusive results got no clear call from the source; some entries with a clear call stand among them for comparison. The call rests on the fitted dose curve; in most records, active means well fitted cell-killing curve with a large enough effect; inconclusive means small, poorly fitted or top-dose-only effect, or effect the other way; inactive means flat fitted curve, though single readings scatter. Where the call is inconclusive, the potency comes from a doubtful curve fit.

assay: qHTS assay for MDR1-selective chemotherapeutics: Primary screen using the drug-selected MDR subline cells KB-V1; details: KB-V1 MDR cells viability, CellTiter-Glo, 72 h; activity change, negative = cytotoxicity: at 46.1 µM (top of the series); further: nearly all actives have a fitted effect of over 60% in size
In short: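 Readout: CellTiter-Glo luminescence, 10 min after addition. Cells: KB-V1 MDR subline, 72 h at 37 degrees C with compound. Analysis: corrected, normalized data fitted to concentration-effect curves.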
On the % scale 0 is the no-effect control and ±100 the full control effect; potency means the concentration at half of the fitted maximal effect.

Row | Compound | Potency | activity change, negative = cytotoxicity
1 | COc1ccc2[nH]c3c(c2c1)CCN1C(=O)C(CC(=O)NCc2ccco2)C[C@H](C(=O)N2CCCCC2)[C@@]31CCc1ccccc1 (stereo not given in full) | inconclusive: 18.4 µM [cytotoxic, single point] | 
2 | Cc1onc(-c2ccccc2Cl)c1C(=O)OCN1C(=O)c2ccccc2C1=O | inconclusive: 10.3 µM [rising, partial curve, poor fit] | 
3 | Cc1nnc(N2CCC(C(=O)NC3CCCCC3)CC2)c2nn(-c3ccc(Cl)cc3)c(C)c12 |  | inactive: 10.9%
4 | Cn1c(C(=O)NCCCN2CCN(c3ccccc3F)CC2)cc2c(=O)[nH]c3ccccc3c21 | inconclusive: 23.1 µM [cytotoxic, partial curve, poor fit] | 
5 | O=c1c2ccccc2c(C=NCCCN2CCOCC2)c(O)n1Cc1ccc2c(c1)OCO2 | inconclusive: 3.66 µM [cytotoxic, full curve] | 
6 | Cc1nnc(NC(=O)Cc2ccc(OCc3c(C)noc3C)cc2)s1 | inconclusive: 23.1 µM [cytotoxic, single point] | 
7 | C[C@@H]1OC(Nc2ccc(N=Nc3ccccc3)cc2)[C@H](O)[C@H](O)[C@H]1O (stereo not given in full) | inconclusive: 29.1 µM [cytotoxic, single point] | 
8 | CCn1c(=O)cc(SCC(=O)NCCc2cc(OC)ccc2OC)c2ccccc21 | inconclusive: 29.1 µM [cytotoxic, single point] | 
9 | CCOC(=O)c1nnn(-c2nonc2N)c1CN1CCc2ccccc2C1 |  | inconclusive: -30.9%
10 | COc1ccc(C(=O)NCCc2sc(-c3ccc(Cl)cc3)nc2C)c(OC)c1 |  | inactive: -6.11%
11 | COc1ccc(Cc2nc3ccccc3[nH]2)cc1OC | inconclusive: 20.6 µM [cytotoxic, single point] | 
12 | O=C(COC(=O)C1(c2ccc(Cl)cc2)CCCC1)Nc1ncc(C(F)(F)F)cc1Cl |  | inactive: 2.62%
13 | Cc1ccccc1NC(=O)Nc1ccc(C(F)(F)F)cc1 | inconclusive: 29.1 µM [cytotoxic, single point] | 
14 | O=C(OCc1ccc(Br)cc1)c1ccncc1 |  | inactive: -21.7%
15 | O=C1c2cc(F)ccc2-n2c1nc1ccccc1c2=O | active: 5.17 µM | 
16 | COc1ccc(C)cc1Nc1nc2cc(Cl)c(Cl)cc2nc1-n1nc(C)cc1C |  | inactive: -1.97%
17 | COc1ccc(C)cc1NC(=O)CSc1nc(=O)n(Cc2ccncc2)c2c1CCC2 |  | inactive: -30.1%
18 | CS(=O)(=O)N(CC(=O)NCCSCc1ccco1)c1ccc2c(c1)OCO2 | inconclusive: 5.17 µM [rising, full curve] | 

Row | Compound | Potency | activity change, negative = cytotoxicity
19 | N=c1c2c3c(sc2ncn1N)CCCC3 | inconclusive: 0.58 µM [rising, full curve] | 
20 | CC(=O)N(Cc1ccc(F)cc1)C1=C(NCCc2ccccc2)C(=O)c2ccccc2C1=O | inconclusive: 29.1 µM [cytotoxic, single point] | 
21 | CC(C)CN(Cc1c(O)ccc2ccccc12)CC(C)C |  | inactive: -3.79%
22 | Cc1ccc(SC[C@H](Cc2ccccc2)N2CC[C@@H](NC(=O)OCc3ccccc3)CCC2=O)cc1 | inconclusive: 6.51 µM [cytotoxic, partial curve] | 
23 | CCCC(C)C(=O)Nc1cccc(NC(C)=O)c1 (stereo not given) | inconclusive: 23.1 µM [cytotoxic, partial curve, poor fit] | 
24 | CC(=O)Nc1ccc(NC(=O)C(C)OC(=O)[C@@H]2CCCN2C(=O)c2cccs2)cc1 (stereo not given in full) | inconclusive: 6.51 µM [rising, partial curve] | 
25 | c1ccc(CSc2nnc(-c3ccccc3)c(-c3ccccc3)n2)cc1 | active: 18.4 µM | 
26 | CCOC(=O)COc1ccc(C)cc1C(=O)c1ccn2nc(-c3ccc(C)cc3)cc2n1 |  | inactive: 5.38%
27 | COC(=O)c1ccc(OCC2c3cc(OC)c(OC)cc3CCN2C(=O)C(C)C)cc1 (stereo not given) |  | inactive: -12.9%
28 | COc1ccc(NC(=O)c2cccc(Oc3ccccc3)c2)cn1 | inconclusive: 4.61 µM [cytotoxic, full curve] | 
29 | C=CCN(CC=C)Cc1cc(=O)oc2cc(OC)c(Cl)cc12 |  | inactive: 3.68%
30 | Cc1ccc(Cn2ccc(NC(=O)c3cc(-c4cccc(Cl)c4)on3)n2)cc1 | active: 14.6 µM | 
31 | O=[N+]([O-])c1ccc2c(c1)nc1n2CCCCC1 | inconclusive: 11.6 µM [rising, partial curve, poor fit] | 
32 | COc1ccc(C2N(C(=O)N3CCOCC3)CCN2S(=O)(=O)c2ccc(C)cc2)cc1 (stereo not given) | inconclusive: 10.3 µM [cytotoxic, partial curve, poor fit] | 
33 | COc1ccc(-c2cc(C#N)nc(N3CCN(C)CC3)n2)cc1 |  | inactive: 1.26%
34 | O=C1N=c2ccccc2=C1c1sc(=S)n(Cc2ccccc2Cl)c1O | inconclusive: 29.1 µM [cytotoxic, single point] | 
35 | CCOc1ccc(NCc2cccn2-c2nnc(N3CCC(C(=O)NCCCN4CCCCC4)CC3)s2)cc1 | inconclusive: 0.259 µM [rising, full curve, poor fit] | 
